Measurements as given in paper PMC4365034.
Results are given in words; binding and its absence hold for the method and conditions named. Binding seen in cells or lysates may run through a third protein. For part of these data: Tags and fused reporters may be left off the sequences shown.

By UniProt entry, the sequences of proteins in these tests, tags left out. Where a name states a change or a piece, a line headed by the entry shows the natural chain unless it says otherwise.
UniProt P26599: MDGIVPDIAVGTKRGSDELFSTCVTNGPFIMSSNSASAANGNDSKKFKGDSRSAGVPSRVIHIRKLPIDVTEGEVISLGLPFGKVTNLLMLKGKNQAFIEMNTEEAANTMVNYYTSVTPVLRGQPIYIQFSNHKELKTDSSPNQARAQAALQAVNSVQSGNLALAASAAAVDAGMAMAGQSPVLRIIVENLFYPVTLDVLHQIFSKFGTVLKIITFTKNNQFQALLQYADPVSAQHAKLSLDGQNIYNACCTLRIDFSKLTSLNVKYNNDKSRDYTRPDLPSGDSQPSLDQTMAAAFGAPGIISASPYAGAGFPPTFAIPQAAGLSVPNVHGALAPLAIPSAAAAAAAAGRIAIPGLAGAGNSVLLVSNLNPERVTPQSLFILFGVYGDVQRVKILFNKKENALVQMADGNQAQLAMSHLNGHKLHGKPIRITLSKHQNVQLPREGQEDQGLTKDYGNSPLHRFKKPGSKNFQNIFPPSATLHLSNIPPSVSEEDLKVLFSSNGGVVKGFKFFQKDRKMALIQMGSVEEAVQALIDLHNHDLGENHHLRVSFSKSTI

T1: GST-SXL (UniProt P19339)
T1 sequence: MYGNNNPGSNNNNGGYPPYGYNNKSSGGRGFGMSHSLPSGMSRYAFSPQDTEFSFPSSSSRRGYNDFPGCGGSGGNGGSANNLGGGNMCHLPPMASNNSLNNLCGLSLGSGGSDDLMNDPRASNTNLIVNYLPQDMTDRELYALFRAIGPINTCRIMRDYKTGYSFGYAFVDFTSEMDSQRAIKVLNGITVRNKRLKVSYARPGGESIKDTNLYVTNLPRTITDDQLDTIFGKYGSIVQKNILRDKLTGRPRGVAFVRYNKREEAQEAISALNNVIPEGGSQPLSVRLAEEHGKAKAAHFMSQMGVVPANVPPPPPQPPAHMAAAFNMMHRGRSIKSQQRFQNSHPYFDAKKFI


What was measured:
[1] = molecular target: GST-PTB full-length Y247Q (UniProt P26599); assay: pull-down; GST-PTB RRM2 or GST-PTB full-length (wild type, Y247Q) as bait, HeLa nuclear extract; Western blot with antibodies against Matrin3 and Raver1; only the target purified
GST-SXL = molecular target: T1, GST-SXL; assay: pull-down; GST-PTB or GST-SXL as bait; MS2 fusion peptides transcribed and translated in vitro; RNase A 25 ug/ml after translation and 0.5 ug/ml in the pre-incubation, 3 h at 4°C; only the target purified

| Binder | binding [1] | binding (GST-SXL) |
| --- | --- | --- |
| Raver1 (endogenous, HeLa nuclear extract) (protein, UniProt Q8IY67 1-606) MAADVSVTHRPPLSPKSGAEVEAGDAAERRAPEEELPPLDPEEIRKRLEHTERQFRNRRKILIRGLPGDVTNQEVHDLLSDYELKYCFVDKYKGTAFVTLLNGEQAEAAINAFHQSRLRERELSVQLQPTDALLCVANLPPSLTQQQFEELVRPFGSLERCFLVYSERTGQSKGYGFAEYMKKDSAARAKSDLLGKPLGPRTLYVHWTDAGQLTPALLHSRCLCVDRLPPGFNDVDALCRALSAVHSPTFCQLACGQDGQLKGFAVLEYETAEMAEEAQQQADGLSLGGSHLRVSFCAPGPPGRSMLAALIAAQATALNRGKGLLPEPNILQLLNNLGPSASLQLLLNPLLHGSAGGKQGLLGAPPAMPLLNGPALSTALLQLALQTQGQKKPGILGDSPLGALQPGAQPANPLLGELPAGGGLPPELPPRRGKPPPLLPSVLGPAGGDREALGLGPPAAQLTPPPAPVGLRGSGLRGPLSHFYSGSPTSYFTSGLQAGLKQSHLSKAIGSSPLGSGEGLLGLSPGPNGHSHLLKVRAGGGDMQGWEAPAPQRPLTRPALPSVSRPHWAARNAALPTCCPRPSPAQKAAMWASTPRASAATTRTPT | no binding | – |
| PLPTPPGVSLLGEPPKDYRIP (peptide, UniProt Q9CW46 491-511) [Raver1 491-511 peptide fused to MS2 (FLAG-Raver1 PRI)] | – | no binding |
| QQSTNPAPGILGPPPPSFHL (peptide, UniProt P43243 346-365) [Matrin3 346-365 peptide fused to MS2 (FLAG-Matrin3 PRI-MS2)] | – | no binding |
